Source: PubChem BioAssay AID1347076 (National Center for Advancing Translational Sciences (NCATS), 2019)
Out of some 400,000 compounds screened, about 13,000 (3.2%) were called active. The shares of active, inactive and inconclusive entries below differ from those in the screen. The call rests on the fitted dose curve; in most records, active means well fitted cell-killing curve with a large enough effect; inconclusive means small, poorly fitted or top-dose-only effect, or effect the other way; inactive means flat fitted curve, though single readings scatter. Potencies beside an inconclusive call are fits to weak or partial responses and may not hold up.

Assay: qHTS assay for MDR1-selective chemotherapeutics: Primary screen using the drug-selected MDR subline cells KB-V1; further: nearly all actives have a fitted effect of over 60% in size
Conditions: KB-V1 MDR cells viability, CellTiter-Glo, 72 h; activity change, negative = cytotoxicity: at 46.1 µM (top of the series)
Outline: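 Cytotoxicity toward P-gp-expressing KB-V1 cells was determined as loss of CellTiter-Glo luminescence after 72 h at 37 degrees C. Compounds were tested in quantitative HTS format across a concentration range, with curves fitted to normalized data.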
On the % scale 0 is the no-effect control and ±100 the full control effect; potency means the concentration at half of the fitted maximal effect.

**Q.** Which Potency does the source give for O=C(CSc1nc2ccccc2[nH]1)Nc1ccc2c(c1)CCC2 here?
**A.** inconclusive: 16.4 µM [cytotoxic, partial curve, poor fit]

**Q.** Which Potency does the source give for O=C(O)/C=C/C(=O)NC1CCS(=O)(=O)C1 (stereo not drawn) here?
**A.** inactive

**Q.** For COc1ccc(CCNC(=O)CC(NC(=O)c2ccccc2Cl)c2ccccc2)cc1 (stereo not drawn), which Potency is on record?
**A.** inconclusive: 18.4 µM [cytotoxic, partial curve, poor fit]

**Q.** With Cc1cc(Br)ccc1NC(=O)CN(C)C(=O)c1cc(S(=O)(=O)N(C)C)ccc1N1CCCC1 as the compound, how does the Potency read?
**A.** inconclusive: 23.1 µM [cytotoxic, single point]

**Q.** For CCCC1=Nc2cc(C(=O)N3CCN(c4ccccn4)CC3)ccc2Sc2ccc(C)cc21, which Potency is on record?
**A.** inactive

**Q.** Which Potency does the source give for CN(c1ccccc1)S(=O)(=O)c1ccc(Cl)c(C(=O)Nc2ccc(-c3nc4ccccc4[nH]3)cc2)c1 here?
**A.** inconclusive: 9.2 µM [cytotoxic, partial curve]

**Q.** With CC1=C(C(=O)Nc2ccccc2C)C(c2sccc2C)n2ncnc2N1 (stereo not drawn) as the compound, how does the Potency read?
**A.** inconclusive: 29.1 µM [rising, single point]

**Q.** Which Potency does the source give for COc1ccccc1C(=O)NCC(=O)OCC(=O)c1cccc2ccccc12 here?
**A.** inactive

**Q.** For CCOC(=O)c1csc(NC(=O)c2ccc(OCC)cc2)n1, which Potency is on record?
**A.** inconclusive: 11.6 µM [cytotoxic, partial curve]

**Q.** Which Potency does the source give for CN(C)S(=O)(=O)c1ccc(NC(=O)Cn2nc(-c3ccc4c(c3)OCCO4)ccc2=O)cc1 here?
**A.** inconclusive: 29.1 µM [cytotoxic, single point]

**Q.** With CCc1cc(C(=O)Nc2ccc(OC)nc2)sc1C as the compound, how does the Potency read?
**A.** inconclusive: 29.1 µM [cytotoxic, single point]

**Q.** With CN(C)c1ccc2c(=O)c3ccccc3oc2n1 as the compound, how does the Potency read?
**A.** inactive

**Q.** For O=C(C1CCC(Cn2c(=S)[nH]c3ccccc3c2=O)CC1)N1CCN(c2ccccn2)CC1 (stereo not drawn), which Potency is on record?
**A.** inconclusive: 4.11 µM [cytotoxic, full curve]

**Q.** For CCOC(=O)c1ccc(NC(=S)Nc2ccc(Br)cc2N)cc1, which Potency is on record?
**A.** inconclusive: 29.1 µM [cytotoxic, single point]

**Q.** With O=C(NS(=O)(=O)Oc1ccc(Cl)cc1)OC[C@@H]1CCCN2CCCC[C@H]12 as the compound, how does the Potency read?
**A.** inactive

**Q.** For Cc1ccccc1OCCN1C(=O)NC2(CCc3ccccc32)C1=O (stereo not drawn), which Potency is on record?
**A.** active: 23.1 µM

**Q.** With CCOc1ccc(-n2c(-c3ccccc3)c[n+]3c2CCCCC3)cc1 as the compound, how does the Potency read?
**A.** inconclusive: 9.2 µM [rising, partial curve]

**Q.** For CCC1CCCCN1C(=O)c1cc2c(=O)n3cccc(C)c3nc2s1 (stereo not drawn), which Potency is on record?
**A.** inactive

**Q.** Which Potency does the source give for Cc1cc(C)c(OCC(=O)OCC(=O)NCc2ccco2)c(C)c1 here?
**A.** inactive

**Q.** For COCCN(Cc1cc2cc(C)ccc2nc1Cl)C(=O)Nc1ccccc1C, which Potency is on record?
**A.** inconclusive: 5.8 µM [cytotoxic, partial curve]

**Q.** With Cc1cc(-c2ccccc2)nc(N/N=C/c2cccnc2)n1 as the compound, how does the Potency read?
**A.** inconclusive: 11.6 µM [cytotoxic, partial curve]

**Q.** With CCOc1ccccc1/C=N/N1CCN(Cc2ccccc2)CC1 as the compound, how does the Potency read?
**A.** inconclusive: 20.6 µM [rising, single point]

**Q.** For O=C(CN1C(=O)NC2(CCCCCC2)C1=O)N1CCN(c2ccc(F)cc2)CC1, which Potency is on record?
**A.** inactive

**Q.** For COc1cc(O)c(C(C)=O)c2c1C=CC(C)(C)O2, which Potency is on record?
**A.** inactive

**Q.** For CCOC(=O)c1ccc(N2C(=O)c3n[nH]c(-c4ccco4)c3C2c2cccc([N+](=O)[O-])c2)cc1 (stereo not drawn), which Potency is on record?
**A.** active: 18.4 µM

**Q.** Which Potency does the source give for N#Cc1cccc(NC(=O)C2CCN(S(=O)(=O)c3ccc4c(c3)CCCN4C(=O)C3CCC3)CC2)c1 here?
**A.** inconclusive: 16.4 µM [cytotoxic, single point]

**Q.** For CCN1CCN(c2cc(C)c3cc(NC(=O)Cc4ccc(OC)c(OC)c4)ccc3n2)CC1, which activity change, negative = cytotoxicity is on record?
**A.** inconclusive: -45.7%

**Q.** For C=Cc1ccc(Cn2c(C)c(C(=O)NCc3cccc(C(F)(F)F)c3)sc2=O)cc1, which Potency is on record?
**A.** inconclusive: 20.6 µM [cytotoxic, single point]

**Q.** Which Potency does the source give for CC1=C(C(=O)OCCOc2ccccc2)C(c2ccc(C)o2)C2=C(CC(C)(C)CC2=O)N1 (stereo not drawn) here?
**A.** inconclusive: 20.6 µM [cytotoxic, single point]

**Q.** For CC(C)Oc1ccc(C(CC(=O)O)NC(=O)C2CCCCC2)cc1 (stereo not drawn), which Potency is on record?
**A.** inconclusive: 29.1 µM [rising, single point]

**Q.** For COc1cccc(NC(=O)CCSc2nnc3scc(-c4ccccc4)n23)c1, which Potency is on record?
**A.** inconclusive: 14.6 µM [cytotoxic, partial curve]

**Q.** For CCCOc1ccc2c(CC)cc(=O)oc2c1C, which Potency is on record?
**A.** active: 13 µM

**Q.** For COc1ccc(/C=C/C(=O)NCCc2ccc(S(N)(=O)=O)cc2)cc1, which Potency is on record?
**A.** inconclusive: 29.1 µM [rising, single point]

**Q.** With COc1ccc(OC)c(NC(=O)COC(=O)CCS(=O)(=O)c2ccc(Cl)cc2)c1 as the compound, how does the Potency read?
**A.** inconclusive: 18.4 µM [cytotoxic, single point]

**Q.** With C=CS(=O)(=O)N(Cc1ccc(Cl)c(Cl)c1)C[C@@H](O)CO as the compound, how does the Potency read?
**A.** inconclusive: 29.1 µM [cytotoxic, single point]

**Q.** For O=C(C[n+]1ccccc1)N/N=C/c1ccc(Br)cc1, which Potency is on record?
**A.** inconclusive: 29.1 µM [rising, single point]

**Q.** For Cc1cccc(NC(=O)C2CCCN(S(=O)(=O)c3c(C)n[nH]c3C)C2)c1 (stereo not drawn), which Potency is on record?
**A.** inactive

**Q.** With Cc1ccccc1Nc1c(-c2cccnc2)nc2cccc(C)n12 as the compound, how does the Potency read?
**A.** inconclusive: 23.1 µM [cytotoxic, single point]

**Q.** Which Potency does the source give for N#CCCNC(=O)Cn1c(COc2ccc(Cl)cc2)nc2ccccc21 here?
**A.** inactive

**Q.** For Cc1ccccc1NC(=O)CSCc1nc(N)nc(Nc2ccccc2C)n1, which Potency is on record?
**A.** inactive

**Q.** With Cc1ccc(CN2C(=O)C(=O)c3cc(Br)cc(C)c32)cc1 as the compound, how does the Potency read?
**A.** inconclusive: 29.1 µM [cytotoxic, single point]

**Q.** With O=C(CN1CCN(Cc2ccc3c(c2)OCO3)CC1)N1CCc2[nH]c3ccc(F)cc3c2C1 as the compound, how does the Potency read?
**A.** inconclusive: 29.1 µM [cytotoxic, single point]

**Q.** With CC(C)C(NC(=O)c1c(F)cccc1F)C(=O)OCN1C(=O)c2ccccc2C1=O (stereo not drawn) as the compound, how does the Potency read?
**A.** inactive

**Q.** Which Potency does the source give for COc1ccc(NC(=O)C(c2ccncc2)n2c(=O)c(-c3cc4ccccc4[nH]3)nc3ccccc32)cc1 (stereo not drawn) here?
**A.** inactive

**Q.** With Cc1csc(NC(=O)C2(C)CCN2C(=O)C(C)C)c1C#N (stereo not drawn) as the compound, how does the Potency read?
**A.** inactive

**Q.** Which Potency does the source give for CC(C)(C)OC(=O)NCC(=O)NCC(=O)OCc1ccccc1 here?
**A.** inactive

**Q.** Which Potency does the source give for COCCNC(=O)c1ccc2c(c1)CCN2S(C)(=O)=O here?
**A.** inconclusive: 29.1 µM [rising, single point]

**Q.** Which Potency does the source give for Cc1cc(C(=O)NCCN2CCCCC2C)n(-c2ccccc2)n1 (stereo not drawn) here?
**A.** inconclusive: 25.9 µM [rising, single point]

**Q.** Which Potency does the source give for CCCCCCN1C[C@H](n2cc(C3CC3)nn2)[C@@H](O)C[C@@H]1c1ccc(Cl)cc1 here?
**A.** inactive

**Q.** For CCN(C(=O)c1cc2c(=O)n(CC)c3ccccc3c2s1)c1cccc(C(F)(F)F)c1, which Potency is on record?
**A.** inactive

**Q.** Which Potency does the source give for COc1ccc(-c2c(C)oc3ccc(C)cc23)cc1 here?
**A.** inactive

**Q.** Which Potency does the source give for O=C(C1CCC(CNc2c(N3CCCCC3)c(=O)c2=O)CC1)N1CCN(C2CCCCC2)CC1 (stereo not drawn) here?
**A.** inconclusive: 29.1 µM [rising, single point]

**Q.** Which Potency does the source give for CSc1ncccc1C(=O)Nc1ccc(S(=O)(=O)NC2=NCCCCC2)cc1 here?
**A.** inactive

**Q.** Which Potency does the source give for COc1ccc(CCNC(=O)c2c(O)c3ccccc3[nH]c2=O)cc1OC here?
**A.** inconclusive: 11.6 µM [cytotoxic, single point]

**Q.** For O=C(Cc1ccc(Br)cc1)NCc1ccccc1, which Potency is on record?
**A.** active: 4.61 µM

**Q.** Which Potency does the source give for COc1cccc(/C=N/NC(=O)CSc2cccc3cccnc23)c1 here?
**A.** inconclusive: 20.6 µM [cytotoxic, single point]

**Q.** Which Potency does the source give for Cc1cccc(CN2CCN(C(=O)CCl)CC2)c1 here?
**A.** inconclusive: 23.1 µM [cytotoxic, single point]

**Q.** With CC(C)N(CC#CCC(O)(c1ccccc1)c1ccccc1)C(C)C as the compound, how does the Potency read?
**A.** active: 13 µM

**Q.** Which Potency does the source give for CC(C)=CCc1c(O)c(CC=C(C)C)c2occ(-c3ccc(O)cc3)c(=O)c2c1O here?
**A.** inconclusive: 20.6 µM [cytotoxic, single point]

**Q.** With COc1ccc(S(=O)(=O)Nc2cc3c(C(C)=O)c(C)oc3c3ccccc23)cc1 as the compound, how does the Potency read?
**A.** active: 2.06 µM

**Q.** For CCSc1nc2c([nH]c3ccccc32)c(=O)n1-c1cccc(OC)c1, which Potency is on record?
**A.** inconclusive: 29.1 µM [cytotoxic, single point]

**Q.** For COc1ccc(-c2cc(-c3c(O)c(OC)c4occc4c3OC)[nH]n2)cc1OC, which Potency is on record?
**A.** inconclusive: 14.6 µM [cytotoxic, single point]

**Q.** Which Potency does the source give for COc1cccc(NC(=O)Cn2c(=O)ccc3cc(S(=O)(=O)N4CCC(C)CC4)ccc32)c1 here?
**A.** inconclusive: 29.1 µM [cytotoxic, single point]

**Q.** Which Potency does the source give for C/C(=N\Nc1nc(C)cc(-c2ccccc2)n1)c1ccccc1 here?
**A.** active: 6.51 µM

**Q.** For CCOC(=O)c1c(C)c(C(=O)NCc2ccco2)c(C)n1Cc1ccccc1, which Potency is on record?
**A.** active: 4.11 µM

**Q.** For Cn1c(=O)[nH]c(=O)c2c1nc1n2CCN1Cc1ccccc1, which Potency is on record?
**A.** inconclusive: 25.9 µM [cytotoxic, single point]

**Q.** Which Potency does the source give for CC(=O)c1ccccc1NC(=O)C1CC(=O)N(c2ccc3c(c2)OCCO3)C1 (stereo not drawn) here?
**A.** active: 16.4 µM

**Q.** With CCOc1cc(C2c3c(oc4cc(C)c(Cl)cc4c3=O)C(=O)N2Cc2ccco2)ccc1O (stereo not drawn) as the compound, how does the Potency read?
**A.** active: 1.84 µM

**Q.** For Clc1ccc(N=NN2CCOCC2)cc1, which Potency is on record?
**A.** inactive

**Q.** With COc1ccc(-c2nc3ccccc3n2Cc2ccc(C)cc2)cc1 as the compound, how does the Potency read?
**A.** inactive

**Q.** With COc1ccc(NC(=O)c2cc3nc(-c4ccccc4)cc(C)n3n2)cc1OC as the compound, how does the Potency read?
**A.** inconclusive: 23.1 µM [cytotoxic, single point]

**Q.** With CCn1c2ccccc2c2cc(NC(=O)c3cc(C)on3)ccc21 as the compound, how does the Potency read?
**A.** inconclusive: 23.1 µM [cytotoxic, single point]

**Q.** Which Potency does the source give for Cn1nccc1C(=O)Nc1ccn(C23CC4CC(CC(C4)C2)C3)n1 here?
**A.** inconclusive: 29.1 µM [cytotoxic, single point]
